{"source": "paper PMC11686378", "key": {"[1]": {"system": "RPA (Rpa1/Rpa2/Rpa3) (Pyrococcus abyssi)", "assay": "BLI", "settings": "RPA loaded on immobilized ssDNA as filament bait for PriSL or PolD; BLI: 20 mM Na-HEPES pH 8, 150 mM NaCl, 0.2 mg/ml BSA; recombinant protein; label: 3'-TEG-biotin; single-stranded DNA"}, "[2]": {"system": "RPAΔWH (Rpa1/Rpa2 1-179/Rpa3) (Pyrococcus abyssi)", "assay": "BLI", "settings": "RPAΔWH loaded on immobilized ssDNA as filament bait for PriSL or PolD; BLI: 20 mM Na-HEPES pH 8, 150 mM NaCl, 0.2 mg/ml BSA; recombinant protein; label: 3'-TEG-biotin; single-stranded DNA"}}, "note": "The exact form of at least one protein or probe is not confirmed. At least one verdict rests on a figure or table, not on a statement of the authors.", "data": [{"sequence": "CACGCCCTACCTCCATGATCCACTGACCTCCCAGACGCTGCAAGACTTCC [3'-TEG-biotin ssDNA BLI bait]", "values": [{"measurement": "binding result", "setting": "[1]", "value": "binds"}, {"measurement": "binding result", "setting": "[2]", "value": "binds"}]}]}
